Measured values: patent CN116836274A
No constants are given. Whether binding was seen depends on the method and setting. Some results given as binding are weak or reduced against the parent protein; the word gives no strength.

T1: 血清淀粉样蛋白A (Serum amyloid A, SAA), 购自Yashraj biotechnology limited, 货号FRSAA-61 (UniProt P0DJI8)
T1 sequence (looked up): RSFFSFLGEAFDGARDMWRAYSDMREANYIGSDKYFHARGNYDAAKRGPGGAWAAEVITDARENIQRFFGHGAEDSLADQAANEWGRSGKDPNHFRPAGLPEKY


Target: T1, 血清淀粉样蛋白A (Serum amyloid A, SAA), 购自Yashraj biotechnology limited, 货号FRSAA-61
Experiment: screening of mutants, method not detailed

| Binder | binding |
| --- | --- |
| Anti-SAA-11A4mut1 (antibody, mouse IgG1, kappa, V domains shown) VH: QVQLQQSGAELVRPGVSVKISCKGSGYTFTDYAMHWVKQSHAKSLEWIGVINTYYGDASYNQKFKGKATMTEDKSSSTVYMELARLTSEDSAIYYCARGSSIMITSWFAYWGQGTLVTVSA VL: DIQMTQSPASLSASVGETVTITCRASENIYSYLAWYQQKQGKSPQLLVYNAKTLAEGVPSRFSGSGSGTQFSLKINSLQPEDFGSYYCQHHYGTPLTFGTGTKLELKR | binds |
| Anti-SAA-11A4mut2 (antibody, mouse IgG1, kappa, V domains shown) VH: QVQLQQSGAELVRPGVSVKISCKGSGYTFTDYAMHWVKQSHAKSLEWIGVINTYYGDASYNQKFKGKATMTEDKSSSTVYMELARLTSEDSAIYYCARGSSLMITSWFAYWGQGTLVTVSA VL: DIQMTQSPASLSASVGETVTITCRASENIYSYLAWYQQKQGKSPQLLVYNAKTLAEGVPSRFSGSGSGTQFSLKINSLQPEDFGSYYCQHHYGTPLTFGTGTKLELKR | binds |
